Screen size: about 31,000 sequences; about 1,400 (4.5%) were called active.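 How the source made its calls: active means median seed-adjusted z-score above 1 or below -1; inactive means the rest.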 This is one part of the list.

The nature of the assay: Novel Modifiers of Survival Motor Neuron (SMN) Protein: Gene Identification via Genome-wide siRNA Screen.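 Further: luminescence tracks full-length SMN protein made from the SMN2 reporter.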 To be noted: HEK293T SMN2-luciferase reporter, siRNA knockdown, 72 h; actives lie on both sides. The gist of the method:
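siRNA screen, 10418 genes ×3 siRNAs; 1 pmol/well, lipid reverse transfection into HEK293T SMN2-luc reporter line. 72 h, 37 °C, 5% CO2; ONE-Glo readout. Data: neg-ctrl normalized, log10, MAD; hit = MAD >1.0 or < -1.0.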
Background: Reporter assays use an easily measured gene product as a stand-in for the process of interest.
Regarding UGUUUUCCGUGAUGAGUGATT against CIB3, the median seed-adjusted z-score was inactive: 0.234.
On to GCAGAUGCCUUCUUCGUUATT against ABCG2, for which the median seed-adjusted z-score is inactive: 0.
On to GGAAGAAGGUAUUCCGUAUTT against CHD5, for which the median seed-adjusted z-score is inactive: -0.195.
For the sequence CUUCGACAGUACUUCCGGATT against PPP2R1A, the median seed-adjusted z-score was inactive: 0.973.
For CGAAUUUCCUAGUAAACCATT against TFAP2C, the median seed-adjusted z-score was active: 1.28.
Consider CGAUGUUGAAGUUACACCATT against ATP13A4, for which the median seed-adjusted z-score was active: -1.09.
The same measure for GGAAACGAUUUAUCUAGAATT against ITGB8: inactive: -0.0936; for GUAAUCGAGAUGUUACAAATT against PIK3CG: inactive: 0.576; for GCUGGUACGUGACAAUGCATT against KIF5A: inactive: -0.348.
Turning to GGACCGCUACUCUGAGUAUTT against KCNH6, the median seed-adjusted z-score is inactive: 0.424.
On to CCCUCGCUAUGACAGGAAATT against CNGB1, for which the median seed-adjusted z-score was inactive: -0.627.
Consider GAAGAUGCCUUGAUUGAAATT against ANXA3, for which the median seed-adjusted z-score is inactive: -0.156.
On to CCUUUCUACUUAUUGAGUUTT against MFSD5, for which the median seed-adjusted z-score was inactive: 0.205.
For the sequence GGAUAGAGGAAAAUGGAUATT against FGF10, the median seed-adjusted z-score is inactive: 0.
For CCAGCACUGUUUACCUUUUTT against GPR81, the median seed-adjusted z-score was inactive: 0.0718.
As to GCAUAAUUAUGUUCAUCAUTT against SLC13A2, the median seed-adjusted z-score is inactive: 0.172.
In the case of CAUACAUCCUCAACUACUATT against CYP51A1, the median seed-adjusted z-score was inactive: -0.242.
With GGUUAGACCAAUUACACUATT against POGZ, the median seed-adjusted z-score is inactive: -0.376.
As for GGACAUGUGCGUCUACCGATT against HOXD13, the median seed-adjusted z-score was inactive: 0.116.
On to CUUAGAAGAUUUUACGUUUTT against SCN3A, for which the median seed-adjusted z-score was inactive: -0.0556.
The same measure for GAUUUCGGAUUAUCUAAUATT against PRKAA2: inactive: -0.194; for CAGUUACAAGUUAUCAAAATT against SGTB: inactive: -0.0165.
For the sequence CCUGGACCUCGUUCCCAAATT against ADPRHL1, the median seed-adjusted z-score was inactive: 0.
As to GCUCAUUAUUGGGAUCAUUTT against SLC7A3, the median seed-adjusted z-score was inactive: -0.537.
Turning to GAUGAUACCUGCGACAGUATT against MRC1, the median seed-adjusted z-score was inactive: 0.179.
As to GCUGGAGACUGACACUUUATT against HHAT, the median seed-adjusted z-score is inactive: 0.585.
With CUAUUUCCCUAGAUUCUAUTT against HBD, the median seed-adjusted z-score is inactive: 0.
The same measure for GACCUGAUGUGGAAGCAGATT against QDPR: inactive: -0.734; for CCGUAUGAAUGUAAGUAUUTT against ZNF441: inactive: 0.578; for GAAUAGAUAUGUUGGAUAUTT against TPTE2: inactive: -0.0675.
The same measure for GGCUAUCCUGGGUUUAUUUTT against ALKBH1: inactive: -0.087; for GUUACUACAGGACCAUUAATT against MTMR1: inactive: -0.0204; for CCGAUCAAGUGAACAUAGATT against AKAP4: inactive: 0.116.
For the sequence UGGAGGUUCUGGAUCCGAATT against ROR2, the median seed-adjusted z-score was inactive: 0.
The same measure for GGGAGGUCUUAAACAAGGUTT against DCI: inactive: 0.469; for AGCAGUCCCUUAAUAUUGATT against WISP2: inactive: -0.0731.
With GCGCUGUGAUGUUAUUGCATT against SUCLA2, the median seed-adjusted z-score was inactive: -0.21.
The same measure for GAGUCUCAUUUGUCCAAUATT against PLA2G4C: inactive: 0.331.
The same measure for CCAGCGUACUGCUUCUGUUTT against CNR1: inactive: 0.0359; for CUAAGAUGGAUAAAUCUAATT against KERA: inactive: 0.238.
With CACGGUCACUUUCAACAUUTT against C1QBP, the median seed-adjusted z-score is inactive: 0.754.
Turning to AUAUCAGGCUGGUUUACAATT against PLA2G15, the median seed-adjusted z-score is inactive: 0.
The same measure for CCAUCUUGCUGAACCUGGATT against SLC26A6: inactive: 0.316; for GCUGCGAUCAAGUACAUUATT against ASCL3: inactive: 0.0929.
The same measure for CCUGGGCCUUUAUCAGUAATT against PHC1: inactive: -0.615; for GCAGCAAGAAGGUAGCACATT against ZNF598: inactive: -0.303; for GAACCAGAAUUACAACAAATT against GPR75: inactive: 0.
The same measure for GAUAUGAGAGUGCAACUAATT against DIAPH1: inactive: 0.145.
With GACAUUGAAUCUCACCGAATT against CUBN, the median seed-adjusted z-score is inactive: 0.0558.
As for AAUGAUACCUCUGAAGUAATT against ZNF780A, the median seed-adjusted z-score was inactive: 0.298.
Turning to CGAGGUUACAGAGACAUCATT against PCSK2, the median seed-adjusted z-score was inactive: -0.704.
The same measure for CAGCAUAUCUGUUUUCUGATT against CLPS: inactive: -0.799; for GAUGAUUGUUGGAUAUGCATT against CYB5R4: inactive: 0.
For CGAGAUGGACAUGAAGUCATT against NDUFS8, the median seed-adjusted z-score is inactive: -0.467.
Take GCAAGUUGGUAUUGGAAUATT against HOMEZ: the median seed-adjusted z-score is inactive: -0.0614.
As to GCAGACAGCUGAUGACUCUTT against ARHGEF18, the median seed-adjusted z-score was inactive: 0.586.
As for CCAAGAUGAGUAUAAAACATT against HRC, the median seed-adjusted z-score was active: 1.06.
The same measure for GUUCCGACAAGGACACUGATT against SLC9A3R2: inactive: 0.165; for CAGGUAAACCGGAACAAUATT against SLC11A2: inactive: -0.157.
For GGGAAAUACUGAACGCAAATT against CHRNB3, the median seed-adjusted z-score was inactive: -0.0155.
As to UGGUUAAUCUGAUAACUUCTT against WDFY3, the median seed-adjusted z-score is inactive: -0.12.
As for AUGUUAUCAUUGCUCCAUUTT against CAV2, the median seed-adjusted z-score is inactive: -0.00895.
Turning to GGUCAUUGGAUAAUUAAGATT against ZNF620, the median seed-adjusted z-score is inactive: 0.172.
In the case of GGCUACCUGCAUUCACUGATT against SGK1, the median seed-adjusted z-score was inactive: -0.659.
The same measure for CCUGCCUGACGGUCACUUUTT against GAMT: inactive: -0.161; for CCAUAGCAAUGGAGAUUGATT against ATP1A2: inactive: 0.248; for ACUCACCACUGGUGCCUGATT against CLDN2: inactive: 0.865.
Turning to GGAGAUUAUUGAAGAUGGATT against DNTT, the median seed-adjusted z-score is inactive: 0.316.
As to GAAUGUGCUCAUUCGGGAATT against AMHR2, the median seed-adjusted z-score was inactive: 0.557.
In the case of GAACCGCCUUUAACAGAUUTT against CDC5L, the median seed-adjusted z-score is inactive: -0.628.
The same measure for CACUUACUCCUGACCAGUATT against B4GALT3: inactive: -0.138; for GCACCAUCUAUGACUAUGATT against GPX5: inactive: 0.0205; for GGACAAGUGUUAUCGCUUATT against MASTL: inactive: -0.195.
Turning to GCAUGAGCCCAGAUGUGAATT against LIMK1, the median seed-adjusted z-score was inactive: -0.428.
In the case of GCUGAAGAGUUUACCUAUATT against VWA5A, the median seed-adjusted z-score is inactive: 0.
The same measure for GCGCGUCAAGCAGACUUUCTT against DUSP15: inactive: 0; for GGACUCUGAUAGCAGUUCATT against UBE2Z: inactive: 0.0572.
For the sequence GCCUAUGAGUUUAUCAUGATT against ABCB4, the median seed-adjusted z-score is inactive: 0.
The same measure for CUAGGGACCUAUUAAAAGATT against DHX30: inactive: 0.335; for CAGCGCAAAUUUUCAACAATT against ARHGEF6: inactive: -0.0593; for AGCUAAAUCUGGAGAUAUATT against EXOSC3: inactive: 0.569.
GGACUUACGUGGAAGUAGATT against PLCB1: the median seed-adjusted z-score was inactive: 0.0735.
As for GCUAAUCAUUGAGUAUGCATT against KLHL10, the median seed-adjusted z-score is inactive: 0.0708.
Take GAUAGACACCCAAAUCGUATT against ADARB1: the median seed-adjusted z-score is inactive: 0.375.
The same measure for GAAUGCAAGAUUUUCGAUUTT against USH2A: inactive: 0.0673.
As for GGCGGUCAGUGCACAAUGATT against MXD3, the median seed-adjusted z-score is inactive: 0.482.
Turning to GGAGGAUCAAUUUAUCAGATT against VDAC2, the median seed-adjusted z-score is inactive: 0.648.
On to GCAACAACGGCUCCAUUUATT against SHKBP1, for which the median seed-adjusted z-score is inactive: 0.345.
As to AGAGGGUGAUAUCAAGGAATT against TAGAP, the median seed-adjusted z-score was inactive: 0.
With CAGCCUUAAUGGACACGAATT against MFGE8, the median seed-adjusted z-score is inactive: 0.0367.
Take GCCUGGUCAAUAUCCGAAATT against RNF157: the median seed-adjusted z-score was inactive: 0.0197.
On to GCUCUAAGGUUACGGAAGATT against MCOLN2, for which the median seed-adjusted z-score was inactive: -0.0234.
Take GCGGGAGCAUUAUCUCAAATT against ZNF341: the median seed-adjusted z-score is inactive: 0.356.
For CCAUGACUCUAGGACUACATT against CNDP1, the median seed-adjusted z-score is inactive: 0.203.
Turning to GGAGCUCAUUGAACGAUUUTT against PPP4R1, the median seed-adjusted z-score is inactive: -0.911.
As to GUUUAGAAGGUAUAAGGUUTT against PPA1, the median seed-adjusted z-score is inactive: -0.0865.
Regarding GGAUUUGCCCUGACAAAAATT against ZRANB2, the median seed-adjusted z-score was inactive: 0.441.
As to CAUCUUCACUCAUGCAAGATT against GBP6, the median seed-adjusted z-score was inactive: -0.0703.
The same measure for GGAGUUGCAGAAAUCCUUUTT against POLH: inactive: -0.446.
In the case of AGCAAUAACUCGUGUAGCATT against EFNA2, the median seed-adjusted z-score was inactive: -0.314.
Regarding GCCUUAAGUUGGAGAGUAATT against ZNF215, the median seed-adjusted z-score is inactive: 0.485.
Regarding CAAUAUGAAGGUCGAAUUATT against TPR, the median seed-adjusted z-score is active: -1.03.
As to CGAUCUGAGGAAUAUCAAUTT against TTLL6, the median seed-adjusted z-score was inactive: -0.661.
As to AGACGGUGGUGCCUCAAAATT against ZNF496, the median seed-adjusted z-score is inactive: -0.971.
For the sequence GGGCAGUUCUUGCAACCAUTT against ALDH1A2, the median seed-adjusted z-score was inactive: 0.564.
Take CAAUAGGAUUGGUCACCAATT against PNPT1: the median seed-adjusted z-score was inactive: 0.0729.
As to CCAGUGUAUUAGUAAGAGUTT against PLCH1, the median seed-adjusted z-score was inactive: -0.00634.
The same measure for GGUCAGAUCAUUUGAUUCATT against RAB9A: inactive: 0.247.

For the origin of these results see PubChem BioAssay AID1347426 (Functional Genomics Laboratory (NCATS/FGL), 2020).
